{"source": "PubChem BioAssay AID1159584 | Peter MacCallum Cancer Centre, 2016", "test": "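Knock-downs that harm CDH1-null cells more than parental MCF10A cells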 (primary screen)", "cell system": "human MCF10A breast epithelial cells, parental and CDH1-null", "reagent": "siRNA against human genes", "measured": "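Cell viability by CellTiter-Glo ATP luminescence, each line scaled to the mean of mock wells across plates, then CDH1-null over parental ratio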", "reading the numbers": "CDH1-null / parental viability ratio: higher = CDH1-null cells survive relatively better than parental", "note": "The whole screen tested about 18,000 reagents; shown is an unselected part. Not all columns of the deposit are shown. Not given: the amount of reagent, the time to read-out."}
{"gene knocked down": "SRGAP3", "CDH1-null / parental viability ratio": 0.85}
{"gene knocked down": "USP21", "CDH1-null / parental viability ratio": 1.56}
{"gene knocked down": "EIF2B1", "CDH1-null / parental viability ratio": 0.84}
{"gene knocked down": "RAB2B", "CDH1-null / parental viability ratio": 0.72}
{"gene knocked down": "ADCK2", "CDH1-null / parental viability ratio": 1.3}
{"gene knocked down": "BTN3A2", "CDH1-null / parental viability ratio": 0.9}
{"gene knocked down": "PCDHA11", "CDH1-null / parental viability ratio": 0.9}
{"gene knocked down": "FMN2", "CDH1-null / parental viability ratio": 1.06}
{"gene knocked down": "CLEC1B", "CDH1-null / parental viability ratio": 0.92}
{"gene knocked down": "TOR1AIP1", "CDH1-null / parental viability ratio": 1.07}
{"gene knocked down": "TXNDC17", "CDH1-null / parental viability ratio": 1.07}
{"gene knocked down": "WASHC3", "CDH1-null / parental viability ratio": 1.21}
{"gene knocked down": "SLC2A6", "CDH1-null / parental viability ratio": 0.99}
{"gene knocked down": "DCUN1D5", "CDH1-null / parental viability ratio": 1.22}
{"gene knocked down": "PROSER2", "CDH1-null / parental viability ratio": 1.23}
{"gene knocked down": "PRPF39", "CDH1-null / parental viability ratio": 1.09}
{"gene knocked down": "OSBP", "CDH1-null / parental viability ratio": 1.05}
{"gene knocked down": "FAM110A", "CDH1-null / parental viability ratio": 1.1}
{"gene knocked down": "F9", "CDH1-null / parental viability ratio": 1.07}
{"gene knocked down": "LETM1", "CDH1-null / parental viability ratio": 1.22}
{"gene knocked down": "KLHL3", "CDH1-null / parental viability ratio": 1.14}
{"gene knocked down": "G2E3", "CDH1-null / parental viability ratio": 0.78}
{"gene knocked down": "GRM6", "CDH1-null / parental viability ratio": 0.85}
{"gene knocked down": "WNK3", "CDH1-null / parental viability ratio": 1.11}
{"gene knocked down": "PLAAT3", "CDH1-null / parental viability ratio": 0.85}
{"gene knocked down": "CS", "CDH1-null / parental viability ratio": 0.76}
{"gene knocked down": "TRIM72", "CDH1-null / parental viability ratio": 0.85}
{"gene knocked down": "VANGL1", "CDH1-null / parental viability ratio": 1.27}
{"gene knocked down": "SCNN1B", "CDH1-null / parental viability ratio": 1.57}
{"gene knocked down": "POLD2", "CDH1-null / parental viability ratio": 0.99}
{"gene knocked down": "CLK2", "CDH1-null / parental viability ratio": 1.16}
{"gene knocked down": "CCRL2", "CDH1-null / parental viability ratio": 0.83}
{"gene knocked down": "ZNF570", "CDH1-null / parental viability ratio": 1.27}
{"gene knocked down": "PAOX", "CDH1-null / parental viability ratio": 0.9}
{"gene knocked down": "ZNF625", "CDH1-null / parental viability ratio": 0.86}
{"gene knocked down": "GFM2", "CDH1-null / parental viability ratio": 0.85}
{"gene knocked down": "MIIP", "CDH1-null / parental viability ratio": 1.1}
{"gene knocked down": "L3MBTL4", "CDH1-null / parental viability ratio": 1.16}
{"gene knocked down": "HYKK", "CDH1-null / parental viability ratio": 1.04}
{"gene knocked down": "RCSD1", "CDH1-null / parental viability ratio": 0.86}
{"gene knocked down": "NECTIN4", "CDH1-null / parental viability ratio": 0.77}
{"gene knocked down": "BNIP3", "CDH1-null / parental viability ratio": 1.21}
{"gene knocked down": "TEX56P", "CDH1-null / parental viability ratio": 0.69}
{"gene knocked down": "KCTD6", "CDH1-null / parental viability ratio": 1.2}
{"gene knocked down": "XAGE3", "CDH1-null / parental viability ratio": 0.97}
